# Measured data: PubChem BioAssay AID686938 (Drosophila RNAi Screening Center, 2013)
# Purpose: 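Knock-downs reducing store-operated calcium influx in Drosophila cells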 (primary screen)
# System: Drosophila S2R+ cells
# Reagent: long dsRNA against Drosophila genes, about 0.25 µg dsRNA per well, roughly 10,000 cells
# Time to read-out: 5 days of knock-down before the calcium assay
# Challenge: thapsigargin (SERCA pump blocker) to empty calcium stores; entry signal taken 4 min after adding it
# Detection: 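Per-well fluo-4 fluorescence in two replicates, unnormalised, measured in resting cells and 4 min after store depletion by the SERCA blocker thapsigargin; ratio of the two present in few wells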
# Reading the numbers: calcium entry signal: higher = stronger calcium signal after store depletion; entry to resting ratio: higher = more calcium entry relative to resting level; resting calcium signal: higher = higher resting calcium signal
# Call rule: 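Hit if the duplicate-averaged plate z-score for entry over resting signal is under −3; wells with weak total dye signal (Fmax z < −2) or more than 5 off-targets removed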
# Calls: active = strongly reduced calcium entry; inactive = no strong reduction
# The screen tested about 23,000 reagents; this is an unselected part of those with a known target gene and a result. In the full data, 75 (0.33%) were called active. 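Raw plate signals without normalisation; calls rest on plate z-scores that were not deposited; ratio present for only 364 wells.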 Entries without a mark were called inactive. The numbers tell different reagents against one gene apart. Names joined by + are all predicted targets of the reagent. Reagent sequences are not shown. Not given: the dose of the treatment.
target,reagent,"calcium entry signal, replicate 1 (fluorescence units)","calcium entry signal, replicate 2 (fluorescence units)",entry to resting ratio,"resting calcium signal, replicate 1 (fluorescence units)","resting calcium signal, replicate 2 (fluorescence units)"
CG14095,1,3.12e7,4.57e7,,1.51e7,1.89e7
CG9855,1,4.22e7,5.76e7,,1.99e7,2.73e7
gom (gomdanji),1,4.41e7,5.84e7,,2.03e7,2.52e7
Nep3 (Neprilysin 3),1,4.02e7,4.81e7,,2.10e7,2.17e7
tbrd-1,1,4.90e7,5.74e7,,2.28e7,2.23e7
alpha-Est5 (alpha-Esterase-5),1,2.77e7,2.94e7,,1.22e7,1.40e7
CG1582,1,2.40e7,3.35e7,,1.11e7,1.56e7
CG3961,1,3.95e7,4.62e7,,1.77e7,3.09e7
CG3961,2,3.14e7,5.32e7,,1.62e7,1.93e7
Rpt5 (Regulatory particle triple-A ATPase 5),1,2.19e7,2.59e7,,1.58e7,1.43e7
Pcd (pterin-4a-carbinolamine dehydratase),1,3.79e7,4.90e7,,1.86e7,2.03e7
Dg (Dystroglycan),1,3.35e7,3.93e7,,1.60e7,1.76e7
Eb1,1,3.53e7,4.72e7,,1.90e7,2.32e7
beat-IIIc (beaten path IIIc),1,4.06e7,2.42e7,,1.72e7,1.19e7
beat-IIIc (beaten path IIIc),2,4.47e7,3.08e7,,1.95e7,1.36e7
Spg7 (Paraplegin),1,3.80e7,5.06e7,2,1.89e7,2.14e7
disp (dispatched),1,4.42e7,3.30e7,,2.37e7,1.72e7
CG8788,1,4.38e7,4.19e7,,2.02e7,1.86e7
Rbbp5 + CG6434 (retired record),1,1.96e7,3.11e7,,9.39e6,1.48e7
Mcm3 (Minichromosome maintenance 3),1,2.18e7,2.61e7,,1.11e7,1.30e7
Hr51 (Hormone receptor 51),1,3.40e7,3.54e7,,1.81e7,1.74e7
Hr51 (Hormone receptor 51),2,2.83e7,4.46e7,,1.39e7,2.12e7
Prim1 (DNA primase subunit 1),1,2.29e7,2.99e7,,1.23e7,1.70e7
RpLP2 (Ribosomal protein LP2),1,2.04e7,1.55e7,,1.45e7,1.05e7
CG15602,1,3.14e7,3.25e7,,1.60e7,1.49e7
Atac1 (Ada2a-containing complex component 1),1,3.81e7,3.78e7,,1.67e7,1.75e7
exex (extra-extra),1,3.59e7,4.44e7,,1.73e7,1.96e7
CG43367 + asRNA:CR32252,1,3.39e7,2.75e7,,1.69e7,1.32e7
ND-SGDH (NADH dehydrogenase (ubiquinone) SGDH subunit),1,3.73e7,3.78e7,,2.03e7,1.51e7
Tsp42Eo (Tetraspanin 42Eo),1,2.76e7,4.16e7,,1.35e7,1.71e7
CG5693,1,4.46e7,3.46e7,,2.04e7,1.53e7
ACXC (Adenylyl cyclase X C),1,5.37e7,3.32e7,,2.30e7,1.55e7
CG1958,1,3.06e7,4.56e7,,1.60e7,2.10e7
CG11597,1,4.36e7,3.26e7,,2.94e7,1.35e7
Jon99Fii + Jon99Cii + Jon99Ciii + 1 more,1,3.57e7,5.24e7,,1.86e7,2.03e7
CG31029,1,3.33e7,5.44e7,,1.61e7,2.30e7
CG7120,1,2.59e7,2.63e7,,1.36e7,1.30e7
CG7120,2,2.05e7,3.05e7,,1.04e7,1.32e7
CG14151,1,1.08e7,2.14e7,,6.46e6,9.58e6
OS9 (Olfactory-specific 9),1,3.97e7,4.19e7,,1.98e7,1.85e7

Part of the list above, showing only “resting calcium signal, replicate 2 (fluorescence units)”.
Spg7 (Paraplegin): 2.14e7
disp (dispatched): 1.72e7
CG8788: 1.86e7
Rbbp5 + CG6434 (retired record): 1.48e7
Mcm3 (Minichromosome maintenance 3): 1.30e7
